Measurements from the supplement of paper PMC12819154, “High-throughput peptide-centric local stability assay extends protein–ligand identification to membrane proteins, tissues and bacteria” (Nature Structural & Molecular Biology, 2025).
The other results are listed elsewhere or left out. Small differences around the control level are noise.

Amino acid sequences for entries named in this document (tags omitted). A change or cut given only in a name is not applied to a line headed by its entry.
UniProt Q8N0Z6: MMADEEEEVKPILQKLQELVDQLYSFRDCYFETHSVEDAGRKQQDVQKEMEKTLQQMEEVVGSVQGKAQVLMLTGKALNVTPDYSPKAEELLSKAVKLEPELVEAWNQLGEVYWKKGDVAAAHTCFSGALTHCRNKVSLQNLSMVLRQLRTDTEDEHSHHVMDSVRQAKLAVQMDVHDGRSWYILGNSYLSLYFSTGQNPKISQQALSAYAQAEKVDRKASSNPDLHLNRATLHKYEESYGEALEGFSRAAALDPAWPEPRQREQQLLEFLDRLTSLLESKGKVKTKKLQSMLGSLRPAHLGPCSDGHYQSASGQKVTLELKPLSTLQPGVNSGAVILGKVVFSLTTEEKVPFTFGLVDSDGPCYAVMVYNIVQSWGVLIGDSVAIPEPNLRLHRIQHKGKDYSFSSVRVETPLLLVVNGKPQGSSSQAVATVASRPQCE
UniProt Q86Y91: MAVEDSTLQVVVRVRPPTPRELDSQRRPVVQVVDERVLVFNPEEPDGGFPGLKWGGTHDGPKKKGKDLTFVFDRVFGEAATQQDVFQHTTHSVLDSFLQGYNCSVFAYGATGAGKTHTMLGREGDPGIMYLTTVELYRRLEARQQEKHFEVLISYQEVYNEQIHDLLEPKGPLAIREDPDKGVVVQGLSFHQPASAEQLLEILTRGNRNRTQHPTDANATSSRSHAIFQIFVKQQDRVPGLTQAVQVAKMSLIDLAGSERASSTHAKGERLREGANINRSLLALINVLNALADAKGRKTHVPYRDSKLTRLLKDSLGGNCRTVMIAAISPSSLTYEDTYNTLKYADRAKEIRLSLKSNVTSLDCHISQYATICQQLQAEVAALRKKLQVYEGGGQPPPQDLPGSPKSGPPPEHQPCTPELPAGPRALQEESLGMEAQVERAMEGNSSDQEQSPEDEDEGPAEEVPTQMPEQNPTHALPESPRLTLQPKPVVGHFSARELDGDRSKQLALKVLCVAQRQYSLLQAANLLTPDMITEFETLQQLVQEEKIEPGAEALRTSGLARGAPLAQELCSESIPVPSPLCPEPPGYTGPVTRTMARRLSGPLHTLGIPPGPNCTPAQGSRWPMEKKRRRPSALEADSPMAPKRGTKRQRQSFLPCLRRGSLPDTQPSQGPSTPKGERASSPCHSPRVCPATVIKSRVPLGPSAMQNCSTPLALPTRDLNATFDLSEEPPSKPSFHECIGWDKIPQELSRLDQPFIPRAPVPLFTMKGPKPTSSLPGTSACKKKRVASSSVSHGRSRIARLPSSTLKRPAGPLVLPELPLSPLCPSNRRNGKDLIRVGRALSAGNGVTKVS
UniProt Q86X76: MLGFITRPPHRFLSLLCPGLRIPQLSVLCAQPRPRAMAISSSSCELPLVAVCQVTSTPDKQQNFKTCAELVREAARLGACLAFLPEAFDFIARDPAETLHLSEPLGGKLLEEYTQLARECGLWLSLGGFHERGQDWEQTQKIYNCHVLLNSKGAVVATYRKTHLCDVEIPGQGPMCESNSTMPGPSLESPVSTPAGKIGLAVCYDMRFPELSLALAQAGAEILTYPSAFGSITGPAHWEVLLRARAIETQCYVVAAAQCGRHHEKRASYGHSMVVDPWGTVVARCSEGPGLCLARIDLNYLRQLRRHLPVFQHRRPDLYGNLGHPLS
UniProt Q8N2G6: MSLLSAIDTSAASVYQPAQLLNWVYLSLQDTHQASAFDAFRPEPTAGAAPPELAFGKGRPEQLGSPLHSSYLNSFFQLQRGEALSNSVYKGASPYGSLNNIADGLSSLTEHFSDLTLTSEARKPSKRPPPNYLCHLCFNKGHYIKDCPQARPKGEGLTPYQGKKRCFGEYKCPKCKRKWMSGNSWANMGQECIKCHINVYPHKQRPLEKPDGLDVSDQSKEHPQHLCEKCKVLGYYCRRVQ
UniProt Q86XE0: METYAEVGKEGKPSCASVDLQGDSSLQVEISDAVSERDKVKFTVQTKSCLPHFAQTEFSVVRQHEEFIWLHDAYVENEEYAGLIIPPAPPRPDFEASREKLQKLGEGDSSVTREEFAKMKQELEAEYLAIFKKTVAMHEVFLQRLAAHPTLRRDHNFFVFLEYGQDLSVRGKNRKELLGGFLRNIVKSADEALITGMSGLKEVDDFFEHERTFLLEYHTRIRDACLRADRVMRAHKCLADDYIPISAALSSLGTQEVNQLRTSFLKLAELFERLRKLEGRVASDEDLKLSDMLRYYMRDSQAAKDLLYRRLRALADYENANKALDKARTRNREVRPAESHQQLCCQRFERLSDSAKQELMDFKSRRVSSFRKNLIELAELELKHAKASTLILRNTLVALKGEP
UniProt Q8IYB8: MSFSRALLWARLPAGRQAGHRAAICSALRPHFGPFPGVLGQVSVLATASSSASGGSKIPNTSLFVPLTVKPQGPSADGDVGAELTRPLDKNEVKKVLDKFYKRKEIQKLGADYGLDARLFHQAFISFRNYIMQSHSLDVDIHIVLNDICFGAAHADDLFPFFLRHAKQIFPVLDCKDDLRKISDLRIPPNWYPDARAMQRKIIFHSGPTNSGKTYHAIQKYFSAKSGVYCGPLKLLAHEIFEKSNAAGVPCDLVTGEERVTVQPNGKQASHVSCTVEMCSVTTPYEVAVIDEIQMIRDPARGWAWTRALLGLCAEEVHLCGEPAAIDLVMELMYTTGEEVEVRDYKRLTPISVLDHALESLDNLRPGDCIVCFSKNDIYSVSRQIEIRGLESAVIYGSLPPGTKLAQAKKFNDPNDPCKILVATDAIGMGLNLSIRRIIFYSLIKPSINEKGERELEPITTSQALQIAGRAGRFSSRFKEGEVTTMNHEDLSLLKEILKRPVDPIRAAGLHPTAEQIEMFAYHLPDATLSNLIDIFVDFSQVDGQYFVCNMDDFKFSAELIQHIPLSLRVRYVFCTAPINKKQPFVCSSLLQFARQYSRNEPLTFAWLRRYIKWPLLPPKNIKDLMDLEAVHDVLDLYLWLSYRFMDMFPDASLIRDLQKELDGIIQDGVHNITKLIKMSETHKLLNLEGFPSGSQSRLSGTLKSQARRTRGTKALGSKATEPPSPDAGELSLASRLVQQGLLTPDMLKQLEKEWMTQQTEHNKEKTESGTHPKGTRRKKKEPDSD
UniProt Q86WR7: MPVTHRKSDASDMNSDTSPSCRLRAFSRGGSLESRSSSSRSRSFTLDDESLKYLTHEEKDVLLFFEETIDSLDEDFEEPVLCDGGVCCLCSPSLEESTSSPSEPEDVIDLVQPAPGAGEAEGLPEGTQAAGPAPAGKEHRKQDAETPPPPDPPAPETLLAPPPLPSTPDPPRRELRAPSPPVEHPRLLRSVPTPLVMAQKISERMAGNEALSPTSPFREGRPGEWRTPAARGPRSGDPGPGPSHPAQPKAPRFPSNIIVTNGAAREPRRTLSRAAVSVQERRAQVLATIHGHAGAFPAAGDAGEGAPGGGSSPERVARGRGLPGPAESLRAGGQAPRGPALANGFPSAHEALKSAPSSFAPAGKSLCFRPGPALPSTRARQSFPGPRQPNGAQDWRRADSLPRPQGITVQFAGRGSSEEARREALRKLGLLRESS
UniProt Q8IYH5: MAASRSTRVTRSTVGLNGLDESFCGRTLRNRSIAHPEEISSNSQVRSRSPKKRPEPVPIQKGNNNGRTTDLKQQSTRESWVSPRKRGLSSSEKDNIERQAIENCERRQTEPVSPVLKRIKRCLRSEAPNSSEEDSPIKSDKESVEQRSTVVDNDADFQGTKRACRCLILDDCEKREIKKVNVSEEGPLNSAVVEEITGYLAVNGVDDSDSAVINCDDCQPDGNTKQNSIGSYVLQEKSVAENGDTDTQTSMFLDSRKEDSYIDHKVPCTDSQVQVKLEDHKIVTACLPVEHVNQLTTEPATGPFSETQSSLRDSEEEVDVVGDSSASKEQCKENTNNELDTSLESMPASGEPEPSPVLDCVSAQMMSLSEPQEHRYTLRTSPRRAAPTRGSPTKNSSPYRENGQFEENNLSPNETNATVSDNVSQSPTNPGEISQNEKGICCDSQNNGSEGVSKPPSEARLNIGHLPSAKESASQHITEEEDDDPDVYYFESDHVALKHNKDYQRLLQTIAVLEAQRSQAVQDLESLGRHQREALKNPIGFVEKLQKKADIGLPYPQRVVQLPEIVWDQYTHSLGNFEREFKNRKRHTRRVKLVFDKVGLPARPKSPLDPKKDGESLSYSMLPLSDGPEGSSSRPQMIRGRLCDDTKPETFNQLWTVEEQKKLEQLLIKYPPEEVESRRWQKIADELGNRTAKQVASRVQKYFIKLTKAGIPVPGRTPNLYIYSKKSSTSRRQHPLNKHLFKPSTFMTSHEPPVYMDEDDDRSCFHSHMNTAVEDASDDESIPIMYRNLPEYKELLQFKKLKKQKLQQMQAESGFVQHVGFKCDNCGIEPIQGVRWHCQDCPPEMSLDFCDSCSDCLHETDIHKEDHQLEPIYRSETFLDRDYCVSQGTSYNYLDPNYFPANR
UniProt Q8IYB9: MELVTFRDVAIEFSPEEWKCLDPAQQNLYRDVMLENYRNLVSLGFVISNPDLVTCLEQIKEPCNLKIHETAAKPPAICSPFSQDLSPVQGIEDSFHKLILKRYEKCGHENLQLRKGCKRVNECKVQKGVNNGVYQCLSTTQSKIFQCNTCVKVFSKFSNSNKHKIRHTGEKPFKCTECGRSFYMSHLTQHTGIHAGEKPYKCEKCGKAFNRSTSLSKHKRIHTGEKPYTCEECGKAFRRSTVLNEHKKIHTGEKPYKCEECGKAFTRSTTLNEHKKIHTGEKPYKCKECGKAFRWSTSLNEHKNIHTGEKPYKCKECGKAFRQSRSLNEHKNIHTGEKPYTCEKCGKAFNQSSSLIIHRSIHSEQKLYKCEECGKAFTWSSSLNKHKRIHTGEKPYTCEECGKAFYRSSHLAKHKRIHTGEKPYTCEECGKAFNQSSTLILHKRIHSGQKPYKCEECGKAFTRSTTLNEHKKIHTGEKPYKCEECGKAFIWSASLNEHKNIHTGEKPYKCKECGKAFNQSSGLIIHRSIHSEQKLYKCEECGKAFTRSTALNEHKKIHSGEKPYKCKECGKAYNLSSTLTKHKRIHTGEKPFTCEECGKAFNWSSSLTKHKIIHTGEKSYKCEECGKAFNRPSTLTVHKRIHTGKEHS
UniProt Q8IVN3: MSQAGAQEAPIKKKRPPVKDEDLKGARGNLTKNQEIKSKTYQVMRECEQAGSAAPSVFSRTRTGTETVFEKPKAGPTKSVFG
UniProt Q8IUI4: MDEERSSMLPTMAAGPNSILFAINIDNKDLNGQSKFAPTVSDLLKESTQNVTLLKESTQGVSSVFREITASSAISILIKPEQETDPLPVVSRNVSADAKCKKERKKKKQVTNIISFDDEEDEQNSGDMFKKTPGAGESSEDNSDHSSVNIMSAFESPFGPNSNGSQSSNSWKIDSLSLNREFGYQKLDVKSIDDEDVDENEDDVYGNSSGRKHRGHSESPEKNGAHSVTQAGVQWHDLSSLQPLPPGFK
UniProt Q8IZM8: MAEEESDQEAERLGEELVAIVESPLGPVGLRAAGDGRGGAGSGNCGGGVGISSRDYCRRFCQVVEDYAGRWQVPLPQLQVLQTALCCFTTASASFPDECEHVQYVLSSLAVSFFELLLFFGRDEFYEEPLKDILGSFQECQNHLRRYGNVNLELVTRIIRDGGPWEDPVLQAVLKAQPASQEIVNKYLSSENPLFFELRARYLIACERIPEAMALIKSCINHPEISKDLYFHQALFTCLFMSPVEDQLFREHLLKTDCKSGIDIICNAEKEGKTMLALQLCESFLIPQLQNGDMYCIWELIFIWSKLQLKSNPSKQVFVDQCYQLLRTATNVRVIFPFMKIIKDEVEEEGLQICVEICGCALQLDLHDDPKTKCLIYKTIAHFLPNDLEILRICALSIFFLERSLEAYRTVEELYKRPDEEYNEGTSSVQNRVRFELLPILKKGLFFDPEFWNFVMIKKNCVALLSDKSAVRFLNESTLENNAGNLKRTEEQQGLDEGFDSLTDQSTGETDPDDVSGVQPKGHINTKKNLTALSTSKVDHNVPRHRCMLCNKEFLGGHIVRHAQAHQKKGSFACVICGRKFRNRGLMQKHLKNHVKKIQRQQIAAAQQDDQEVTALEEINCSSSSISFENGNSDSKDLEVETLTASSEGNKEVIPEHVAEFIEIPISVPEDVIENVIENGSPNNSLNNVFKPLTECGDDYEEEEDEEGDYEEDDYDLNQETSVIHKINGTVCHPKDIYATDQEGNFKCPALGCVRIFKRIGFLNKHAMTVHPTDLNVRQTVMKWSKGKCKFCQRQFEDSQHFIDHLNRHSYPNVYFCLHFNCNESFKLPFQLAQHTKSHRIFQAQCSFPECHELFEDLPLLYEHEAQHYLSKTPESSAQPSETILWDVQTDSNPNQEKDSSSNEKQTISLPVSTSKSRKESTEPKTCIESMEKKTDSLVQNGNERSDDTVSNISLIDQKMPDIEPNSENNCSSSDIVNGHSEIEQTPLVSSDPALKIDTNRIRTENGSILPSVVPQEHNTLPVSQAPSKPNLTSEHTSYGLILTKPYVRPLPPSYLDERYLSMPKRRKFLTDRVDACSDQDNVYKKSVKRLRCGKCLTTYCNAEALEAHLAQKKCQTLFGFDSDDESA
UniProt Q86WW8: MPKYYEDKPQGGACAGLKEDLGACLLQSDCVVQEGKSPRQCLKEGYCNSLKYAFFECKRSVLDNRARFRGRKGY

Compound: CN[C@@H]1C[C@H]2O[C@@](C)([C@@H]1OC)n1c3ccccc3c3c4c(c5c6ccccc6n2c5c31)C(=O)NC4 [staurosporine]
Test: log2 fold change of tryptic peptide abundance, ligand vs vehicle (limited proteolysis) (log2 ratio); higher = more trypsin-susceptible (destabilized)
Details: ligand concentration: 20 uM; sample: K562 cleared lysate; digestion: 4 min, 22 C (HT-PELSA RT4min, Orbitrap Astral)

Row | Target | log2 fold change
1 | GID4 (peptide sequence: ARPGLSLPATLLGSR, peptide start residue: 50) (UniProt Q8IVV7) | -0.0637
2 | ANKMY2 (peptide sequence: KGELTQEEKELLEVIGK, peptide start residue: 6) (UniProt Q8IV38) | 1.67
3 | RNF168 (peptide sequence: QTHTKHPTPER, peptide start residue: 502) (UniProt Q8IYW5) | 0.882
4 | TTC5 (peptide sequence: LAVQMDVHDGR, peptide start residue: 170) (UniProt Q8N0Z6) | 0.388
5 | KIF18B (peptide sequence: RPSALEADSPMAPK, peptide start residue: 631) (UniProt Q86Y91) | -0.624
6 | UniProt Q8IWF6 (peptide sequence: SPNFDGWFK, peptide start residue: 511) | 0.806
7 | NIT1 (peptide sequence: ECGLWLSLGGFHER, peptide start residue: 119) (UniProt Q86X76) | 0.417
8 | ARHGAP12 (peptide sequence: AFYVPAQYVK, peptide start residue: 61) (UniProt Q8IWW6) | 0.234
9 | ZCCHC24 (peptide sequence: GEALSNSVYK, peptide start residue: 81) (UniProt Q8N2G6) | -0.0658
10 | UniProt Q86XE0 (peptide sequence: QELEAEYLAIFKK, peptide start residue: 127) | 0.537
11 | UniProt Q8N3L3 (peptide sequence: HRELQQK, peptide start residue: 302) | -0.135
12 | SUPV3L1 (peptide sequence: ELEPITTSQALQIAGR, peptide start residue: 455) (UniProt Q8IYB8) | 0.493
13 | ALDH16A1 (peptide sequence: KVAFCGAPEEGR, peptide start residue: 245) (UniProt Q8IZ83) | 0.397
14 | GCC2 (peptide sequence: MGDAHKELEQSHINYVK, peptide start residue: 113) (UniProt Q8IWJ2) | -0.86
15 | GPBP1 (peptide sequence: GLVPKPAAPPTKPTQWK, peptide start residue: 210) (UniProt Q86WP2) | 0.236
16 | PROSER2 (peptide sequence: FPSNIIVTNGAAREPR, peptide start residue: 253) (UniProt Q86WR7) | 0.267
17 | MYO18B (peptide sequence: RIDEDQDDLNELMQK, peptide start residue: 1895) (UniProt Q8IUG5) | 0.932
18 | RCOR2 (peptide sequence: IQQMLPDKLIPSLVK, peptide start residue: 157) (UniProt Q8IZ40) | 0.299
19 | ZBTB8OS (peptide sequence: DYNLTEEQK, peptide start residue: 10) (UniProt Q8IWT0) | 0.0439

Row | Target | log2 fold change
20 | ZZZ3 (peptide sequence: ADIGLPYPQR, peptide start residue: 549) (UniProt Q8IYH5) | 0.345
21 | RHPN2 (peptide sequence: VLCAAQER, peptide start residue: 442) (UniProt Q8IUC4) | -0.247
22 | ZNF595 (peptide sequence: AYNLSSTLTK, peptide start residue: 572) (UniProt Q8IYB9) | 0.188
23 | HACE1 (peptide sequence: DSTEITSILLK, peptide start residue: 384) (UniProt Q8IYU2) | -0.0888
24 | UniProt Q8IX21 (peptide sequence: HHPEESPLGAK, peptide start residue: 225) | 0.797
25 | UniProt Q8IVN3 (peptide sequence: SQAGAQEAPIKK, peptide start residue: 2) | -0.164
26 | UniProt Q86Y56 (peptide sequence: LILSTLKK, peptide start residue: 439) | 0.401
27 | CCDC28A (peptide sequence: GLLSLLNDFHSGK, peptide start residue: 181) (UniProt Q8IWP9) | 0.193
28 | LTBP4 (peptide sequence: GYLAPSGDLSLR, peptide start residue: 1240) (UniProt Q8N2S1) | 0.458
29 | UniProt Q86YB8 (peptide sequence: LQTQGLGTALK, peptide start residue: 403) | 0.378
30 | SIRT2 (peptide sequence: KSPPPAKDEAR, peptide start residue: 371) (UniProt Q8IXJ6) | 0.197
31 | UniProt Q8IUI4 (peptide sequence: FAPTVSDLLK, peptide start residue: 188) | 0.0311
32 | UniProt Q8N3J9 (peptide sequence: AFSQSSSLCIHQR, peptide start residue: 179) | 0.183
33 | UniProt Q8IZM8 (peptide sequence: QTISLPVSTSK, peptide start residue: 906) | -0.236
34 | COA5 (peptide sequence: QCLKEGYCNSLK, peptide start residue: 40) (UniProt Q86WW8) | -0.0792
35 | DDX42 (peptide sequence: DIDTHTHR, peptide start residue: 578) (UniProt Q86XP3) | 0.208
36 | REXO1 (peptide sequence: EFGGKVPTVIR, peptide start residue: 808) (UniProt Q8N1G1) | -0.856
37 | XRN1 (peptide sequence: QPNSGIENFLASLNISK, peptide start residue: 1313) (UniProt Q8IZH2) | -0.674
38 | UniProt Q8IZQ5 (peptide sequence: KAEAAVVAVAEK, peptide start residue: 9) | -0.385

Reprinted, nos. 26 to 27
Row | Target | log2 fold change
26 | UniProt Q86Y56 (peptide sequence: LILSTLKK, peptide start residue: 439) | 0.401
27 | CCDC28A (peptide sequence: GLLSLLNDFHSGK, peptide start residue: 181) (UniProt Q8IWP9) | 0.193
